The other results are listed elsewhere or left out.
These targets were tested with Cc1sc2c(c1C)C(c1ccc(Cl)cc1)=N[C@@H](CC(=O)OC(C)(C)C)c1nnc(C)n1-2 (assay: log2 fold change, soluble protein after heating vs DMSO (PISA); higher = thermal stabilisation; K562 lysate, 10 uM; active = over 0.2 and 3.5 SD of the protein, either way, in both replicates (recomputed)).
Summary of the method: (§1)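 Values give the log-two fold change in thermal stability against solvent controls, from duplicates. Crude K562 extract at 1 mg/mL protein, made by dounce homogenisation in PBS pH 7.4 with 1 mM MgCl2, was treated with 10 μM compound for 30 min. After 3 min heating across 48°C-58°C, aliquots were pooled, adjusted to 0.5% NP-40 at 4°C and centrifuged at 21,000xg for 90 min. The supernatant was measured by TMTpro 16plex LC-MS/MS with channel sums equalised.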

Chains of the proteins cited; added tags and fusions are not shown. Lines headed by an entry give the natural chain unless they say otherwise; changes in a name come on top.
UniProt Q9BT25: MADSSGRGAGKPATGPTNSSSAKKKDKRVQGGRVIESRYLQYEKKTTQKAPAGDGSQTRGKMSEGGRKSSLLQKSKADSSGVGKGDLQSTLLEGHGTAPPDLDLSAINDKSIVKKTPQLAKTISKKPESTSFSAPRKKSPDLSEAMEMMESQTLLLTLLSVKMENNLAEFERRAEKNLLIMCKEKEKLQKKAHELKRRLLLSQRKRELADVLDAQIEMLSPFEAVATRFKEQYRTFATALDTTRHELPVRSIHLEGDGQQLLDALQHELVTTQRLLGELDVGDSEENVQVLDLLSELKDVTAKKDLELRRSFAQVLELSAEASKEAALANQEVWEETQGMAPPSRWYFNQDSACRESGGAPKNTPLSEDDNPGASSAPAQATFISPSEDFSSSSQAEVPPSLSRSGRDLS
UniProt Q8WW33: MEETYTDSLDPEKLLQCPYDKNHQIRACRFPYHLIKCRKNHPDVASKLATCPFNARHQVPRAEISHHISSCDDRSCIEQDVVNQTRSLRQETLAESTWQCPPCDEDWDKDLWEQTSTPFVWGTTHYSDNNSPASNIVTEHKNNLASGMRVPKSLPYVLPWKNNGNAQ
UniProt Q9H583: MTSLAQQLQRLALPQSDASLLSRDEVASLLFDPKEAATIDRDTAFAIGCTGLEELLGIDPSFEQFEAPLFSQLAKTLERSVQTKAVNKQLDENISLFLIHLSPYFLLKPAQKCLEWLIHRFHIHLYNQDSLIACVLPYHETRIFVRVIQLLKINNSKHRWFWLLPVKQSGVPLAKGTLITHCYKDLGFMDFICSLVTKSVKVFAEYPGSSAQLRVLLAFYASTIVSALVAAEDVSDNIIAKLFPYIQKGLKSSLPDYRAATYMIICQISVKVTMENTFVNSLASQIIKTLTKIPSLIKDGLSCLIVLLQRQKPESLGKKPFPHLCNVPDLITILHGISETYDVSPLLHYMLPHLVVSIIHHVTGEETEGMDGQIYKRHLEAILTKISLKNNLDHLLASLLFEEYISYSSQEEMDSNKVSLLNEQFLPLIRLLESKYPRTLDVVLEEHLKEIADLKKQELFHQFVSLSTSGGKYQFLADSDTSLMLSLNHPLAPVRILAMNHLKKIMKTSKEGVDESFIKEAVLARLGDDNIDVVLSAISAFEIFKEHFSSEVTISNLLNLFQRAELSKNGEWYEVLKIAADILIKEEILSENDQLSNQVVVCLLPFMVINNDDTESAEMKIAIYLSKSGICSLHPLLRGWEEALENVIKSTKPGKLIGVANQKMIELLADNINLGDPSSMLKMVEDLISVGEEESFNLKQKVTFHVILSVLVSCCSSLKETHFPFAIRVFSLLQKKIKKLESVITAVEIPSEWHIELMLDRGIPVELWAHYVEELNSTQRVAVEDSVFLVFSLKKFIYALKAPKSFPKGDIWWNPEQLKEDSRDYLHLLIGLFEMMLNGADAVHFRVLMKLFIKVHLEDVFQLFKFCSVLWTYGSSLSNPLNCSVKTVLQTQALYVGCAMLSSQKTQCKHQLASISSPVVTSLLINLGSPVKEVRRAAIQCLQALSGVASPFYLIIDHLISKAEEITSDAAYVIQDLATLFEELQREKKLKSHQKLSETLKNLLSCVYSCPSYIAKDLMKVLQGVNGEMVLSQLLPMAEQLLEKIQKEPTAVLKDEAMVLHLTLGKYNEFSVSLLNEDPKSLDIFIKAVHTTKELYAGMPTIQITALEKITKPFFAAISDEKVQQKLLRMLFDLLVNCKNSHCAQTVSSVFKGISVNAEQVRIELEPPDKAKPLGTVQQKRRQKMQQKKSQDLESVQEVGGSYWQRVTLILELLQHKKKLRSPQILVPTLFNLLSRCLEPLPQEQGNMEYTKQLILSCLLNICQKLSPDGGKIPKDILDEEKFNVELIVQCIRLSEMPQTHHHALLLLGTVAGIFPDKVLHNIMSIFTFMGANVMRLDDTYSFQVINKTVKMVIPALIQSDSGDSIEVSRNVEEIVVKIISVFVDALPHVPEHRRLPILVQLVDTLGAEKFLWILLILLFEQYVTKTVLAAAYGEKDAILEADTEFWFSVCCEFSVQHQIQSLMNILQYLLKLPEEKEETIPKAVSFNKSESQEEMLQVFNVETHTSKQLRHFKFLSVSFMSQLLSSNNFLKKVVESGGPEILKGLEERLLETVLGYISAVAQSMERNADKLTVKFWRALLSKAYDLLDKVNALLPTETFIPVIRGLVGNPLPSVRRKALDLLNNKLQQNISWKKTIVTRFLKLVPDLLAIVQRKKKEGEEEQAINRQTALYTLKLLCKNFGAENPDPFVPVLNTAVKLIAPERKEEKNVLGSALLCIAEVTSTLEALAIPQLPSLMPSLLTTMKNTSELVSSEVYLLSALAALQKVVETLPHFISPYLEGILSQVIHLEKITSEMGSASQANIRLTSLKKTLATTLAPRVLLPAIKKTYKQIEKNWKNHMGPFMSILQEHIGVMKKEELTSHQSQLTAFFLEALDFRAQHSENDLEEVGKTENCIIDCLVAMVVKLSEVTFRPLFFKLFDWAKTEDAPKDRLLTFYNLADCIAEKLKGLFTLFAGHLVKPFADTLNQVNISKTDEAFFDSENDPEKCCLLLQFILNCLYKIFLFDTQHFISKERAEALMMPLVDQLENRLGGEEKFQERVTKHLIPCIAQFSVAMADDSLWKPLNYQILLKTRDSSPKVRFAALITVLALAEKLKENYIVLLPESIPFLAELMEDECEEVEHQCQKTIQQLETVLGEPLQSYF
UniProt P49841: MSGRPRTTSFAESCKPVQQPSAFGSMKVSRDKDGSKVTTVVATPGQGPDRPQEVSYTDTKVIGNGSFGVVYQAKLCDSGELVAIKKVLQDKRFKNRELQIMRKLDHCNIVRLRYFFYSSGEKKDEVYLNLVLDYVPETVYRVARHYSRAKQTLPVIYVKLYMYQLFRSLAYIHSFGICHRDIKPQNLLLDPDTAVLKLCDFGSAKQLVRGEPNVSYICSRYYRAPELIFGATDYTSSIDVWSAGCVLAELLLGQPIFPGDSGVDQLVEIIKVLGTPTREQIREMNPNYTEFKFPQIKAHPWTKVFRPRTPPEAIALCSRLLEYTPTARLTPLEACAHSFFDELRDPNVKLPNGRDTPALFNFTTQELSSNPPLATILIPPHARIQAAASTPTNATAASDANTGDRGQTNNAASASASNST
UniProt Q9Y450, whole entry, looked up: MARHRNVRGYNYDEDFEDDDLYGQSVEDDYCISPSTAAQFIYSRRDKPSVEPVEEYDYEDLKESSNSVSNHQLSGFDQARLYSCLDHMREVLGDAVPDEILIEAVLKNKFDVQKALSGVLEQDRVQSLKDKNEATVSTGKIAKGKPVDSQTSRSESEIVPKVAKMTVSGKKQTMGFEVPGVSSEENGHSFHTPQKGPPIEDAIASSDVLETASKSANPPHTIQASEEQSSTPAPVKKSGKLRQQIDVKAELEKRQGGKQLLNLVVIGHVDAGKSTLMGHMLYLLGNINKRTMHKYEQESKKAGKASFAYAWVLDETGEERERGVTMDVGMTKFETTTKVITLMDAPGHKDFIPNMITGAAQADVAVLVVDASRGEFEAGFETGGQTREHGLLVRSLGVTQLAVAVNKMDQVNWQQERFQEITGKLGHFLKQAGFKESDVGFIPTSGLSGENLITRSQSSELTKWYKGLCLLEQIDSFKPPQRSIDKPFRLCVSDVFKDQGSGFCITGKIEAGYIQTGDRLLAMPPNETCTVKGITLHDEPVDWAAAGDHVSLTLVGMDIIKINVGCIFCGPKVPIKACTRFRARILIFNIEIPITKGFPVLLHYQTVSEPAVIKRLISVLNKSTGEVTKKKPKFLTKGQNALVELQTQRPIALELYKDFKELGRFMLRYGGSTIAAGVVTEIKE
UniProt Q7Z4H3: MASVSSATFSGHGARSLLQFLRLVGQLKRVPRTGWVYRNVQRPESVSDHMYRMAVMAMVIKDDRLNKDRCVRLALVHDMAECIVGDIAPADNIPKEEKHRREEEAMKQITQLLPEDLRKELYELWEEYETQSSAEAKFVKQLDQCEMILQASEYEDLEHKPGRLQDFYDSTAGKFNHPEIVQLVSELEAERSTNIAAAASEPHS
UniProt P48637: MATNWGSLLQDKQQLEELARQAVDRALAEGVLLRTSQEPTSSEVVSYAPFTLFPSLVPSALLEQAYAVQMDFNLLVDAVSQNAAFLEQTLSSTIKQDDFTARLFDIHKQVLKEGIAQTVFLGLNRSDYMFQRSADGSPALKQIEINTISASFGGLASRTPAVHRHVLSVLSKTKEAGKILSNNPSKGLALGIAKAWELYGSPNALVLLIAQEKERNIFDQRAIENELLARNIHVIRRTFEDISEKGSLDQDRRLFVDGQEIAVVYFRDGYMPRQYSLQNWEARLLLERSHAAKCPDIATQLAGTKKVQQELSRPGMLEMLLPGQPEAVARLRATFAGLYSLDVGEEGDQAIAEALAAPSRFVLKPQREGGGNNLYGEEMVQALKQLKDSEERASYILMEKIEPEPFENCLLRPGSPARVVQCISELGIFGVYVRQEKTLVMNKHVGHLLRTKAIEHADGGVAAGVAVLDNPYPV
UniProt Q9UBN7: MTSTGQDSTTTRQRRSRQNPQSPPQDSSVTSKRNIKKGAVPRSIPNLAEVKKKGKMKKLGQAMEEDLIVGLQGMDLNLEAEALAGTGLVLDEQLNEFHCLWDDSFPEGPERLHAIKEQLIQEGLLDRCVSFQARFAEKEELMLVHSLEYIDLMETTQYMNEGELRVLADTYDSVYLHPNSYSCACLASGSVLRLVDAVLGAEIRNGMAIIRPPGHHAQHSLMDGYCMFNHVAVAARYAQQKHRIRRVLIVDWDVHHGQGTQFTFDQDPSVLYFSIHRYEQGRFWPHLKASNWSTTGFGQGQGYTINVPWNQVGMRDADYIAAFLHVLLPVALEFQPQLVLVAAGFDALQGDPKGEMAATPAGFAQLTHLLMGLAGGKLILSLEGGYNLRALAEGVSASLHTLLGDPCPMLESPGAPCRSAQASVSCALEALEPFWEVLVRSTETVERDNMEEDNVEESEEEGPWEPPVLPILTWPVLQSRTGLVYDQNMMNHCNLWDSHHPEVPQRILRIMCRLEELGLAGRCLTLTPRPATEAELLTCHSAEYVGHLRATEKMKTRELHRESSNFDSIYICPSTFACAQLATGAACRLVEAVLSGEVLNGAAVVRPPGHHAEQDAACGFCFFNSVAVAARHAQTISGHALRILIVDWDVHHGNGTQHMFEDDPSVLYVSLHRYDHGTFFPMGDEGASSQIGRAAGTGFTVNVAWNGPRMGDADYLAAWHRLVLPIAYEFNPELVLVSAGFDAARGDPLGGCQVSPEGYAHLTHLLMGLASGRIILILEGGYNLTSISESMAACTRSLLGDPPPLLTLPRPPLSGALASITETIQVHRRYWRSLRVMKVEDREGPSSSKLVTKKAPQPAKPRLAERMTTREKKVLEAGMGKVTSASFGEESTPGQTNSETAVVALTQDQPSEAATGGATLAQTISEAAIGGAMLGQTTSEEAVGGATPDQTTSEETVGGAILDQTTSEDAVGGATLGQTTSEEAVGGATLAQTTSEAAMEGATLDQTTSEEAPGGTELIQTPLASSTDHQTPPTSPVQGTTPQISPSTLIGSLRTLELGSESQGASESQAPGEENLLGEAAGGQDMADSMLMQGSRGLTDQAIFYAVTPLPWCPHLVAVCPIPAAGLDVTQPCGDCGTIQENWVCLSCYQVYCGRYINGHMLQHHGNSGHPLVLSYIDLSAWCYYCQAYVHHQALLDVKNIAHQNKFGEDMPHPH
UniProt Q6PII5: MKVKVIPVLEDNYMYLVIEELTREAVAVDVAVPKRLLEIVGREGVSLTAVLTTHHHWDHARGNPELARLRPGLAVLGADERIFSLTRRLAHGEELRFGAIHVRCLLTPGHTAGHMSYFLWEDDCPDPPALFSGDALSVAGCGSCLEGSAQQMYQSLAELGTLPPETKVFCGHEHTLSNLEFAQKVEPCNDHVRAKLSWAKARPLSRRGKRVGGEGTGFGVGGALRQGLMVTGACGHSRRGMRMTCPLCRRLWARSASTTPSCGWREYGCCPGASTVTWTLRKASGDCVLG
UniProt Q969Y2: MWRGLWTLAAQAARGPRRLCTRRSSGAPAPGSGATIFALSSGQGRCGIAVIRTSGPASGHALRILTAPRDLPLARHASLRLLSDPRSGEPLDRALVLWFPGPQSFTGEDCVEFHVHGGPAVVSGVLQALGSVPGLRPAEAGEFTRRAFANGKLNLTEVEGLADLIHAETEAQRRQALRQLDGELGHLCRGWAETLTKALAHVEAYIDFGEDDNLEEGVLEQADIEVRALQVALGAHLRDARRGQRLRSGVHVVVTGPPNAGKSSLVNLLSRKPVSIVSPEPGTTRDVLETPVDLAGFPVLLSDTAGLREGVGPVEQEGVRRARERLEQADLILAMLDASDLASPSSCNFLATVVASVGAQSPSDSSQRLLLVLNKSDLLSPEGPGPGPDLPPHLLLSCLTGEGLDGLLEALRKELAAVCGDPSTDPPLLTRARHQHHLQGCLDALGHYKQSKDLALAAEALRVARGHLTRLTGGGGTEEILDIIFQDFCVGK

Target | log2 fold change
H1-4 (UniProt P10412) | inactive: -0.066
H1-3 (UniProt P16402) | inactive: -0.021
GYPC (UniProt P04921) | inactive: -0.003
GSTP1 (UniProt P09211) | inactive: -0.017
HAUS1 (UniProt Q96CS2) | inactive: 0
GTPBP10 (UniProt A4D1E9) | inactive: 0.062
HAUS8 (UniProt Q9BT25) | inactive: 0.009
GTSF1 (UniProt Q8WW33) | inactive: 0.039
HEATR1 (UniProt Q9H583) | inactive: -0.032
H1FX (UniProt Q92522) | inactive: 0.034
HBQ1 (UniProt P09105) | inactive: -0.055
GTF3A (UniProt Q92664) | inactive: 0.096
HDGFL2 isoform 2 (UniProt Q7Z4V5) | inactive: -0.076
GSK3B isoform 2 (UniProt P49841) | inactive: 0.029
HBS1L isoform 2 (UniProt Q9Y450) | inactive: -0.033
HDDC2 (UniProt Q7Z4H3) | inactive: 0.045
HBS1L (UniProt Q9Y450) | inactive: 0.009
GRIPAP1 (UniProt Q4V328) | inactive: -0.02

Target | log2 fold change
GTF2B (UniProt Q00403) | inactive: -0.027
GSS (UniProt P48637) | inactive: 0.004
GYG2 (UniProt O15488) | inactive: -0.119
GSPT2 (UniProt Q8IYD1) | inactive: -0.052
GTF2A2 (UniProt P52657) | inactive: -0.042
UniProt H0YHG0 | inactive: -0.01
HDAC6 (UniProt Q9UBN7) | inactive: -0.007
HDAC1 (UniProt Q13547) | inactive: -0.025
GTF2H1 (UniProt P32780) | inactive: 0.025
HBE1 (UniProt P02100) | inactive: -0.015
HAGHL isoform 2 (UniProt Q6PII5) | inactive: 0.008
GTF2F1 (UniProt P35269) | inactive: 0.035
GTPBP3 isoform 2 (UniProt Q969Y2) | inactive: -0.096
GTF2I (UniProt P78347) | inactive: 0.015
GSTZ1 (UniProt G3V4T6) | inactive: 0.062
GSTT1 (UniProt P30711) | inactive: -0.028
HDGFL3 (UniProt Q9Y3E1) | inactive: -0.013

What follows are targets tested with c1ccc([C@@H]2C[C@H]2NC2CCNCC2)cc1 in the same assay as above.
Summary of the method: as §1

Target | log2 fold change
H1-4 (UniProt P10412) | inactive: -0.08
H1-3 (UniProt P16402) | inactive: 0.022
GYPC (UniProt P04921) | inactive: 0.031
GSTP1 (UniProt P09211) | inactive: 0.035
HAUS1 (UniProt Q96CS2) | inactive: 0.083
GTPBP10 (UniProt A4D1E9) | inactive: 0.005
HAUS8 (UniProt Q9BT25) | inactive: 0
GTSF1 (UniProt Q8WW33) | inactive: -0.006
HEATR1 (UniProt Q9H583) | inactive: -0.061
H1FX (UniProt Q92522) | inactive: 0.019
HBQ1 (UniProt P09105) | inactive: 0.084
GTF3A (UniProt Q92664) | inactive: 0.042
HDGFL2 isoform 2 (UniProt Q7Z4V5) | inactive: -0.212
GSK3B isoform 2 (UniProt P49841) | inactive: -0.074
HBS1L isoform 2 (UniProt Q9Y450) | inactive: 0.02
HDDC2 (UniProt Q7Z4H3) | inactive: 0.03
HBS1L (UniProt Q9Y450) | inactive: 0.02

Target | log2 fold change
GRIPAP1 (UniProt Q4V328) | inactive: 0.026
GTF2B (UniProt Q00403) | inactive: 0.017
GSS (UniProt P48637) | inactive: 0
GSPT2 (UniProt Q8IYD1) | inactive: -0.08
GTF2A2 (UniProt P52657) | inactive: -0.127
UniProt H0YHG0 | inactive: -0.074
HDAC6 (UniProt Q9UBN7) | inactive: 0.042
HDAC1 (UniProt Q13547) | inactive: -0.015
GTF2H1 (UniProt P32780) | inactive: 0.006
HBE1 (UniProt P02100) | inactive: 0.043
GTF2F1 (UniProt P35269) | inactive: -0.081
GTPBP3 isoform 2 (UniProt Q969Y2) | inactive: 0.057
GTF2I (UniProt P78347) | inactive: 0.061
GSTZ1 (UniProt G3V4T6) | inactive: -0.042
GSTT1 (UniProt P30711) | inactive: 0.033
HDGFL3 (UniProt Q9Y3E1) | inactive: 0.021

— the supplement of paper PMC10849652
